In PMC9723619:
These are yes or no findings as the source states them, for the method shown. Some entries that bind do so weakly or less than the wild type. For some assays here: Where a sequence is shown, tags or fusion partners need not be part of it.

How the values were obtained:
Test in all cases: cryo-EM structure; human pre-40S particles purified on anti-Flag beads from HEK Flp-In 293 T-Rex cells (baits SLX9, RIOK1 D324A, BYSL); states UTP14, RRP12-A and RRP12-B
[1] = target: T1, RRP12 (human) (human (endogenous in HEK Flp-In 293 T-Rex)) (UniProt Q5JTH9)
T1 sequence: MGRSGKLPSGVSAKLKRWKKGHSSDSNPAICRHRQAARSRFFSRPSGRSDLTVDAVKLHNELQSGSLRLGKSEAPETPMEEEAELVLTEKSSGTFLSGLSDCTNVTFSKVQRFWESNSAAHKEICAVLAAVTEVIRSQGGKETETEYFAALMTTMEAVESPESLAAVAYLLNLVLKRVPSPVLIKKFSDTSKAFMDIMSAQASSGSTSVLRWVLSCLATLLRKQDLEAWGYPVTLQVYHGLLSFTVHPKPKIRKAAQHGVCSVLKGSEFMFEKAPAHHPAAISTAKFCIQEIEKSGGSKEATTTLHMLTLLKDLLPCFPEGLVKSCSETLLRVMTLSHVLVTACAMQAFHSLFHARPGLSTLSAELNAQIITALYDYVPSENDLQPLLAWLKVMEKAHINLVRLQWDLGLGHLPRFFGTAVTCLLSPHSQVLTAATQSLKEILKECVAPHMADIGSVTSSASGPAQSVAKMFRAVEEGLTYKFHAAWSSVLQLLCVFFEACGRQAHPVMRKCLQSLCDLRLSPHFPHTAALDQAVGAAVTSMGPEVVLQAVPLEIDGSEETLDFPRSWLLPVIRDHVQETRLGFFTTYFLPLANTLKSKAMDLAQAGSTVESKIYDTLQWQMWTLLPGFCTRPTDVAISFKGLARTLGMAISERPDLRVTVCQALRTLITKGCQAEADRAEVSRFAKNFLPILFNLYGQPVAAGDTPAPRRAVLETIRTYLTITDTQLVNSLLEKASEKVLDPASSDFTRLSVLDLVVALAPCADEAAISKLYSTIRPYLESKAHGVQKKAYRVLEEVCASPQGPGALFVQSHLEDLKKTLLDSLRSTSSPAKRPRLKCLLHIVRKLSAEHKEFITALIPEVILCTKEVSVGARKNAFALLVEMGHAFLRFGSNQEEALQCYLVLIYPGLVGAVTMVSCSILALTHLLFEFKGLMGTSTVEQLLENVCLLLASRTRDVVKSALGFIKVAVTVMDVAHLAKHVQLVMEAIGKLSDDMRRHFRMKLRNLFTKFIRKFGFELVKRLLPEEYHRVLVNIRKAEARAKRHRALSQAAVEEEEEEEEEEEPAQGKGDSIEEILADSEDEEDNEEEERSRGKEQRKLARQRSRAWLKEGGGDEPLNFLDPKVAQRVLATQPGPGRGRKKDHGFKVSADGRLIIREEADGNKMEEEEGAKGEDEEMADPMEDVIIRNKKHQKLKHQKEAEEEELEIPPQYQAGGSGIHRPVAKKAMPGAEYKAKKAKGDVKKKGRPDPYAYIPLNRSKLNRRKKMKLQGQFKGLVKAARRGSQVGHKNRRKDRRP

[2] = target: PNO1 (human) (human (endogenous in HEK Flp-In 293 T-Rex)), Q9NRX1; details: remark: other sources report otherwise
[3] = target: T2, BUD23 (human) (human (endogenous in HEK Flp-In 293 T-Rex)) (UniProt O43709)
T2 sequence: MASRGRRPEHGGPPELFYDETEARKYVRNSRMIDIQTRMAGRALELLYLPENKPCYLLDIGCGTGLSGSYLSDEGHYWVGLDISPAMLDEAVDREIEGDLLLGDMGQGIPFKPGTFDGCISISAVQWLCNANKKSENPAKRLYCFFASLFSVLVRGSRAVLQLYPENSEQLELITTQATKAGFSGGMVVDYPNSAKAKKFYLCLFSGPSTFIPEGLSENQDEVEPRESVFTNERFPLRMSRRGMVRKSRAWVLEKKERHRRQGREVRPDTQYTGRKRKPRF

B1: BYSL (human) (protein, UniProt Q13895 1-437)
chain: MPKFKAARGVGGQEKHAPLADQILAGNAVRAGVREKRRGRGTGEAEEEYVGPRLSRRILQQARQQQEELEAEHGTGDKPAAPRERTTRLGPRMPQDGSDDEDEEWPTLEKAATMTAAGHHAEVVVDPEDERAIEMFMNKNPPARRTLADIIMEKLTEKQTEVETVMSEVSGFPMPQLDPRVLEVYRGVREVLSKYRSGKLPKAFKIIPALSNWEQILYVTEPEAWTAAAMYQATRIFASNLKERMAQRFYNLVLLPRVRDDVAEYKRLNFHLYMALKKALFKPGAWFKGILIPLCESGTCTLREAIIVGSIITKCSIPVLHSSAAMLKIAEMEYSGANSIFLRLLLDKKYALPYRVLDALVFHFLGFRTEKRELPVLWHQCLLTLVQRYKADLATDQKEALLELLRLQPHPQLSPEIRRELQSAVPRDVEDVPITVE
With B1 the binding [1] was “binds”.

B2: BYSL (human), Q13895 1-437 (protein)
chain: B1 chain
In the case of B2, the binding [2] is reported as “binds”.

B3: SLX9 (human), N-terminal Strep-Flag-3C tagged (protein, UniProt Q9NSI2 1-230)
chain: MGKVRGLRARVHQAAVRPKGEAAPGPAPPAPEATPPPASAAGKDWAFINTNIFARTKIDPSALVQKLELDVRSVTSVRRGEAGSSARSVPSIRRGAEAKTVLPKKEKMKLRREQWLQKIEAIKLAEQKHREERRRRATVVVGDLHPLRDALPELLGLEAGSRRQARSRESNKPRPSELSRMSAAQRQQLLEEERTRFQELLASPAYRASPLVAIGQTLARQMQLEDGGQL
With B3 the binding [1] was “binds”.

B4: BUD23 (human) (enzyme, UniProt O43709 1-281)
chain: T2 sequence
B4 was tested, and the binding [1] was “binds”.

B5: TRMT112 (human) (protein, UniProt Q9UI30 1-125)
chain: MKLLTHNLLSSHVRGVGSRGFPLRLQATEVRICPVEFNPNFVARMIPKVEWSAFLEAADNLRLIQVPKGPVEGYEENEEFLRTMHHLLLEVEVIEGTLQCPESGRMFPISRGIPNMLLSEEETES
With B5 the binding [3] was “binds”.
